# Reference: the supplement of paper PMC12823440, “Inhibitors supercharge kinase turnover through native proteolytic circuits” (Nature, 2025)
# By UniProt entry, the sequences of proteins in these tests, tags left out. Where a name states a change or a piece, a line headed by the entry shows the natural chain unless it says otherwise.
# UniProt P53671: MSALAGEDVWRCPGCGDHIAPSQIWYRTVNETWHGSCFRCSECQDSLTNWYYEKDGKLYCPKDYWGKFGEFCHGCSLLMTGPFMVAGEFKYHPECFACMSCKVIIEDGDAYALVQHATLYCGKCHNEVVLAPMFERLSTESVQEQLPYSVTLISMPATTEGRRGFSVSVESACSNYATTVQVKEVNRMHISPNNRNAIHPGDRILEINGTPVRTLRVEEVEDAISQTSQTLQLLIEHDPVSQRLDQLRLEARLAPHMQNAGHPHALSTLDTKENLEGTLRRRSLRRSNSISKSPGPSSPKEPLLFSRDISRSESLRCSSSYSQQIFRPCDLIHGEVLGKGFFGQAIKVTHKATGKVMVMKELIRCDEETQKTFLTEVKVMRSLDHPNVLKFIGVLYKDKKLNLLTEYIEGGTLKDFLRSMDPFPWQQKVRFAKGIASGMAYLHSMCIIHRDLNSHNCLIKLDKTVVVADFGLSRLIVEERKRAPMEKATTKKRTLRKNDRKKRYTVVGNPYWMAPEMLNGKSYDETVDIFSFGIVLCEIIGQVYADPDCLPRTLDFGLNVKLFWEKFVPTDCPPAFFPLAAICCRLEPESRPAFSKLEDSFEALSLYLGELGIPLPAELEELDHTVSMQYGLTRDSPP
# Structures can show the parent of a compound that is named as a salt. This is one part of the list. The calls rarely recur for the same compound in another form.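 Kinases, fused to nanoluciferase, were expressed in K562 cells; luminescence was measured every 4 h from 2 to 18 h as percent of control (DMSO = 100%, positive control = 0%). A time point is decreased if signal falls significantly (2 sigma). Hits were called by the authors by a rule that is not shown; the count of time points alone does not decide it.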
# Target: LIMK2 (UniProt P53671)
# Experiment: kinase-Nluc reporter destabilization hit call (1 = scored as downregulated) (binary); higher = compound decreases kinase abundance
# Details: 2.5 µM; K562; 2-18 h
row,SMILES,kinase-Nluc reporter destabilization hit call
1,Nc1nc(Nc2ccc(S(N)(=O)=O)cc2)nn1C(=O)c1c(F)cccc1F,inactive: 0
2,CCOc1cc2ncc(C#N)c(Nc3ccc(F)c(Cl)c3)c2cc1NC(=O)/C=C/CN(C)C [Pelitinib],inactive: 0
3,Nc1ncnc2c1c(-c1cnc3[nH]ccc3c1)nn2C1CCCC1,inactive: 0
4,CCN(CC)CCNC(=O)c1c(C)[nH]c(/C=C2\C(=O)Nc3ccc(F)cc32)c1C [Sunitinib],inactive: 0
5,C=CC(=O)Nc1cc2c(Nc3ccc(F)c(Cl)c3)ncnc2cc1OCCCN1CCOCC1 [Canertinib (dihydrochloride)],inactive: 0
6,Cc1[nH]c(/C=C2\C(=O)Nc3ccc(F)cc32)c(C)c1C(=O)NC[C@H](O)CN1CCOCC1,inactive: 0
7,Cc1cc(Nc2cc(N3CCN(C)CC3)nc(/C=C/c3ccccc3)n2)n[nH]1 [ENMD-2076 (Tartrate)],inactive: 0
8,O=C(Nc1cccc(Nc2nccc(Nc3cccc(C(F)(F)F)c3)n2)c1)C1CC1 [Aurora kinase inhibitor-3],inactive: 0
9,CN1CCN(c2ccc3nc(-c4c(N)c5c(F)cccc5[nH]c4=O)[nH]c3c2)CC1 [Dovitinib],inactive: 0
10,O=C1NCCc2[nH]c(-c3ccncc3)cc21,inactive: 0
11,CC1(C)CNc2cc(NC(=O)c3cccnc3NCc3ccncc3)ccc21 [Motesanib (Diphosphate)],inactive: 0
12,CC(=O)c1c(C)c2cnc(Nc3ccc(N4CCN(C(=O)CCCCCC(=O)N[C@H](C(=O)N5C[C@H](O)C[C@H]5C(=O)NCc5ccc(-c6scnc6C)cc5)C(C)(C)C)CC4)cn3)nc2n(C2CCCC2)c1=O,inactive: 0
13,COc1cc2/c(=N/c3ccc(Br)cc3F)nc[nH]c2cc1OCC1CCN(C)CC1 [Vandetanib],inactive: 0
14,CC(C)n1nc(-c2cc3cc(O)ccc3[nH]2)c2c(N)ncnc21 [Torkinib],inactive: 0
15,Cc1nc(Nc2ncc(C(=O)Nc3c(C)cccc3Cl)s2)cc(N2CCN(CCO)CC2)n1 [Dasatinib],inactive: 0
16,CC1(C)C(=O)N([C@H]2CCc3c(O)cccc32)c2nc(Nc3cccc(CN4CCCC4)c3)ncc21,inactive: 0
17,CNC(=O)c1cc(Oc2ccc(NC(=O)Nc3ccc(Cl)c(C(F)(F)F)c3)cc2)ccn1 [Sorafenib],inactive: 0
18,CN1CCN(c2ccc3nc(-c4c(N)c5c(F)cccc5[nH]c4=O)[nH]c3c2)CC1 [Dovitinib (lactate)],inactive: 0
19,CC1(C)CNc2cc(NC(=O)c3cccnc3NCc3ccncc3)ccc21 [Motesanib],inactive: 0
20,Cc1cc(Nc2cc(N3CCN(C)CC3)nc(/C=C/c3ccccc3)n2)n[nH]1,inactive: 0

# Some of the entries so far, tab-delimited:
row	SMILES	kinase-Nluc reporter destabilization hit call
18	CN1CCN(c2ccc3nc(-c4c(N)c5c(F)cccc5[nH]c4=O)[nH]c3c2)CC1 [Dovitinib (lactate)]	inactive: 0
19	CC1(C)CNc2cc(NC(=O)c3cccnc3NCc3ccncc3)ccc21 [Motesanib]	inactive: 0
